Some results were stated once for a whole list of compounds, not compound by compound. Where a SMILES comes first, the peptide text is derived from it. Bridges are numbered along the chain shown (N, C = ends). [ ]: non-standard residue; d: D form. The star is where a group is joined. Heptanoyl(5-Me) = CCC(C)CCCC(=O)*; Dab = NCC[C@H](N)C(=O)O
Tested on: A. baumannii ATCC DMC1
Experiment: Mouse burn wound infection model, bacteria on skin over 7 days
Type: in vivo
Conditions: 24 hours, 48 hours, and 7 days after a burn, colistin 4 μg/ml, colistin-resistant strain

| Compound | A. baumannii detected on skin |
| --- | --- |
| apyrase | 10^5 to 10^8 CFU/g of skin |
| CCC(C)CCCC(=O)N[C@@H](CCN)C(=O)N[C@H](C(=O)N[C@@H](CCN)C(=O)N[C@H]1CCNC(=O)[C@H]([C@@H](C)O)NC(=O)[C@H](CCN)NC(=O)[C@H](CCN)NC(=O)[C@H](CC(C)C)NC(=O)[C@@H](CC(C)C)NC(=O)[C@H](CCN)NC1=O)[C@@H](C)O (stereo partly drawn) [Colistin, colistin] ({Heptanoyl(5-Me)}-[Dab]T[Dab][Dab][Dab][dL]L[Dab][Dab]T; lactam 4-C) | 10^5 to 10^8 CFU/g of skin |

— US20150273025A1, “APYRASE TREATMENTS” (THE REGENTS OF THE UNIVERSITY OF MICHIGAN, priority 2012, published 2015)
